56 compounds from PubChem BioAssay AID1458 (National Center for Advancing Translational Sciences (NCATS), 2008) can be followed below.

The campaign covered roughly 210,000 compounds. About 5,900 (2.8%) were called active. Another 5% or so got no clear call; they are omitted. Calls follow the shape of the dose curve; as a rule, active = well fitted activation curve with a large enough effect; inconclusive = small, poorly fitted or top-dose-only effect; inactive = no such curve, though single readings can be large or run the other way. The entries are a selection whose mix differs from that of the whole data set. The source gives no active or inactive call for entries shown without one.
Potency is read from the fitted curve at half-maximal effect.

The nature of the experiment: qHTS Assay for Enhancers of SMN2 Splice Variant Expression. Also: nearly all actives have a fitted effect of over 55% in size. As to activity change, positive = activation: % of control where 0% means no effect. The following applies: HEK293 SMN2-luciferase splicing reporter, luminescence, 30-36 h; activity change, positive = activation: at 46.1 µM (top of the series) unless noted. Summed up: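 HEK293 cells carry an SMN2 […]–luciferase reporter in which exon 7 inclusion puts luciferase in frame. Cells were plated 10-12 h before compound addition, then incubated 30-36 h at 37C. ONE-Glo luminescence was read; sodium butyrate at 4.5 mM final served as control.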
On the technique in general: qHTS replaces the single test concentration by a dilution series.
On to `Cn1c(=O)c2c(nc(NCCO)n2C)n(C)c1=O`, for which the activity change, positive = activation was determined as 33.9%.

For the compound `Cc1ccc(C(=O)Nc2nnc(-c3ccco3)o2)cc1`, the Potency is active: 12.6 µM.

Consider `COc1ccccc1CNC(=O)CNC(=O)Cn1cnc2ccccc2c1=O`, for which the activity change, positive = activation was found to be 39.4%.

As to `Cc1cc(C(=O)Cn2nc(C(=O)O)c3ccccc3c2=O)c(C)n1-c1ccc(OC(F)F)cc1`, the “activity change, positive = activation” value was inactive: -51.5%.

For `COc1ccc(N2CCN(C(=O)CSc3ccccc3N)CC2)cc1`, the activity change, positive = activation is 29.2%.

Consider `C/C(=N\NC(=O)c1ccccc1O)c1cccs1`, for which the Potency was active: 3.55 µM.

In the case of `NC(=O)C1(N2CCCCC2)CCN(C(=O)CSc2nc3ccccc3s2)CC1`, the activity change, positive = activation worked out at 33.5%.

For the compound `CCCCCCCn1ccc(=N)cc1`, the “activity change, positive = activation” value is inactive: -90%.

Take `O=C(Nc1cccnc1)c1ccc(S(=O)(=O)c2ccc(Cl)cc2)cc1`: the “activity change, positive = activation” value is inactive: -79.7%.

As to `O=S(=O)(c1ccc2ccccc2c1)N1CCC(c2nc(-c3ccncc3)no2)CC1`, the “activity change, positive = activation” value is inactive: -78.2%.

Regarding `COc1ccc(OC)c(NC(=O)CSc2nnnn2-c2ccc3c(c2)OCO3)c1`, the Potency is active: 35.5 µM.

Regarding `CC(=O)c1cc(NC(=O)c2ccc(C)cc2)c(=O)oc1C`, the activity change, positive = activation came to 77.9%.

On to `CCOc1ccccc1NC(=O)C1C2C=CC(O2)C1C(=O)O` (stereo unspecified), for which the activity change, positive = activation amounted to 27.8%.

As to `COc1ccc(S(=O)(=O)N(CC(=O)NC2CC2)C2CCCCC2)cc1Cl`, the activity change, positive = activation came to 39.8%.

For `C(=N\Nc1ccccn1)/c1ccc2c(c1)OCCO2`, the Potency is active: 2.51 µM.

Take `CCOC(=O)c1c(C)nc(-c2ccccc2)nc1N`: the activity change, positive = activation worked out at 336%.

As for `COc1cccc(C(=O)NCCC2=CCCCC2)c1OC`, the Potency was active: 12.6 µM.

As to `COc1ccc2c(c1OC)C(=O)OC2Nc1ncc(Br)cc1Br` (stereo unspecified), the activity change, positive = activation was determined as 36.5%.

For the compound `O=C(O)c1cc([N+](=O)[O-])ccc1N1CCCCC1`, the “activity change, positive = activation” value is inactive: -1.11%.

Take `COc1ccc(Nc2nc(NCC3CCCO3)c3ccccc3n2)c(OC)c1` (stereo unspecified): the “activity change, positive = activation” value was inactive: -43.8%.

For `O=C(/C=C/c1ccc2c(c1)OCO2)N1CCOCC1`, the activity change, positive = activation was found to be 24.4%.

For the compound `O=S1(=O)C=C(Sc2nc3ccccc3s2)c2ccccc21`, the “activity change, positive = activation” value was inactive: -108%.

Take `CC(C)NS(=O)(=O)c1ccc(OCC(N)=O)c(Cl)c1`: the activity change, positive = activation is 39.1%.

Turning to `Cc1nn(C)c(C)c1NC(=O)c1ccc(Br)o1`, the activity change, positive = activation is -30%.

With `Cc1c(Br)c([N+](=O)[O-])nn1CC(=O)N1CCCc2ccccc21`, the activity change, positive = activation was found to be 34.9%.

`CC(C)(C)n1ncc(Oc2ccccc2[N+](=O)[O-])c(Cl)c1=O`: the “activity change, positive = activation” value is inactive: -40.2%.

Consider `FC(F)(F)c1ccc(C2[C@H]3CN(CC4CCCCC4)[C@H](c4ccccc4)C34CC2(c2ccccc2)C4)cc1` (stereo partly specified), for which the “activity change, positive = activation” value was inactive: -68.9%.

In the case of `CCc1nc(OCc2ccco2)c2sc3nc4c(cc3c2n1)COC(C)(C)C4`, the activity change, positive = activation is -32.7%.

As to `CCOc1cc(CNc2ccccc2SC)ccc1O`, the activity change, positive = activation was determined as 29.5%.

For `COCCCNC(=O)c1c(NC(=O)c2cc(=O)c3ccccc3o2)sc2c1CCCC2`, the activity change, positive = activation is -43.8%.

For the compound `Cn1c(SCc2ccccc2)nnc1-c1ccc2c(c1)OCO2`, the Potency is active: 22.4 µM.

Consider `Cc1ccc(SCCNC(=O)C(C)C)cc1`, for which the activity change, positive = activation worked out at 37.3%.

As to `O=C(Nc1ccon1)c1ccc(OC2CCCC2)cc1`, the Potency was active: 17.8 µM.

As to `Cc1ccc(NC(=O)c2cccnc2)cc1S(=O)(=O)N(C)C`, the “activity change, positive = activation” value is inactive: 5.46%.

In the case of `Fc1ccccc1CSc1nc2ncccc2[nH]1`, the Potency was active: 22.4 µM.

As to `CCn1cnc2cc(NC(=O)c3cccs3)ccc21`, the Potency was active: 12.6 µM.

`CCC(C)NS(=O)(=O)c1ccc(S(=O)(=O)N2CC=C(c3ccc(F)cc3)CC2)cc1` (stereo unspecified): the “activity change, positive = activation” value is inactive: -77.4%.

Take `c1ccc2c(c1)CCN(c1nc3cc4c(cc3s1)OCO4)C2`: the Potency was active: 2.24 µM.

As to `COc1ccc(C2CC(=O)N(Cc3ccc(F)cc3)c3ccccc3S2)cc1OC` (stereo unspecified), the “activity change, positive = activation” value was inactive: -42%.

Regarding `Cc1sc(NC(=O)c2ccco2)c(C(c2cccnc2)N2CCC(C)CC2)c1C` (stereo unspecified), the activity change, positive = activation was -74.1%.

On to `O=[N+]([O-])c1ccc(N/N=C/c2ccc[nH]2)cc1`, for which the “activity change, positive = activation” value was inactive: -32.1%.

For the compound `O=C(CSC1=NC(=O)C(c2ccccc2)C(=O)N1)Nc1ccccc1[N+](=O)[O-]` (stereo unspecified), the activity change, positive = activation is 40.7%.

In the case of `C=CCSc1nc(=O)n2ccc(C)cc2n1`, the activity change, positive = activation was 34.6%.

Consider `CC(C)(C)c1ccc(C(=O)Nc2ccccc2Cl)cc1`, for which the activity change, positive = activation was 38.7%.

Turning to `O=C(Nc1ccc2c(c1)OCO2)c1ccc(Br)s1`, the Potency was active: 12.6 µM.

On to `CCOc1ccc(C(=O)Nc2ccccc2CC)cc1[N+](=O)[O-]`, for which the “activity change, positive = activation” value is inactive: 8.8%.

On to `CCN1CCN(C(=O)c2nn(-c3ccccc3)c(=O)c3ccccc23)CC1`, for which the activity change, positive = activation was found to be 31%.

For `CCC(C)C(=O)Nc1c2c(nc3c1CCC3)CCCC2` (stereo unspecified), the activity change, positive = activation worked out at 44.6%.

Regarding `O=C(CSc1nnc(Cc2ccccc2)o1)c1cc(F)ccc1F`, the activity change, positive = activation turned out to be 32.5%.

Take `CNC(=O)c1sc2nc(-c3ccc(OC)cc3)cn2c1C`: the activity change, positive = activation came to 94.4%.

Take `Fc1ccc(Nc2nc3nonc3nc2Nc2cccc(C(F)(F)F)c2)cc1`: the “activity change, positive = activation” value was inactive: -64.5%.

For the compound `O=C(O)c1ccccc1NN=C1CCCCC1`, the activity change, positive = activation was determined as 120%.

With `COc1cc(/C=N/O)ccc1OCc1ccccc1Cl`, the Potency is active: 11.2 µM.

For the compound `CCn1cnc2cc(NCc3ccncc3)ccc21`, the activity change, positive = activation turned out to be 30.2%.

As for `Cc1ccc(NC(=O)CCCc2ccccc2)nc1`, the Potency was active: 15.8 µM.

As for `O=C(Nc1ccc2c(c1)CCC2)c1ccccc1F`, the Potency was active: 4.47 µM.
